Results are given in words; binding and its absence hold for the method and conditions named. For some assays here: Binding calls can cover weak binding; strength is not graded here.
What was measured:
[1] = molecular target: delta 1-91 RIα; test: fluorescence anisotropy
[2] = molecular target: RIIβ isoform of the PKA regulatory subunit; test: fluorescence anisotropy

VQGNTDEAQEELAWKIAKMIVSDVMQQC (tetramethylrhodamine-5-maleimide on the C-terminal Cys; C-terminal amide) [AKB (dual), WT (SEQ ID NO:108) …, rhodamine-labeled]
binding [1]: no binding
binding [2]: binds
